According to the supplement of paper PMC10849652:
The other results are listed elsewhere or left out.

The chains behind the UniProt entries cited, without tags or fusion partners. Where a name states a change or a piece, a line headed by the entry shows the natural chain unless it says otherwise.
UniProt P00390: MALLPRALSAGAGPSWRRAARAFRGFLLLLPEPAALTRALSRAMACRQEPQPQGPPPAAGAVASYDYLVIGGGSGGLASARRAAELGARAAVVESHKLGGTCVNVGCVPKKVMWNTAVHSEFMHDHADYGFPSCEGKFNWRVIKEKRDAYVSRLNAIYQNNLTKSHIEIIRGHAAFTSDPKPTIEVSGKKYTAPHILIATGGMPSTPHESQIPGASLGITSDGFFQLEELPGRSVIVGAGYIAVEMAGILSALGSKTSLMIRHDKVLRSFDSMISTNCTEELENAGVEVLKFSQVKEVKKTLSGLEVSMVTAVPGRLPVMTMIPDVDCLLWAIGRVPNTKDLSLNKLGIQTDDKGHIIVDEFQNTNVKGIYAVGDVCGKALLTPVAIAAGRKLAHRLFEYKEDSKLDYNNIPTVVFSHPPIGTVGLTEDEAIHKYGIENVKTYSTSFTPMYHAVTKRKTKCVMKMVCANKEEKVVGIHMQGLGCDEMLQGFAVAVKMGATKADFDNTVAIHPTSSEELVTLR
UniProt O00165, whole entry, looked up: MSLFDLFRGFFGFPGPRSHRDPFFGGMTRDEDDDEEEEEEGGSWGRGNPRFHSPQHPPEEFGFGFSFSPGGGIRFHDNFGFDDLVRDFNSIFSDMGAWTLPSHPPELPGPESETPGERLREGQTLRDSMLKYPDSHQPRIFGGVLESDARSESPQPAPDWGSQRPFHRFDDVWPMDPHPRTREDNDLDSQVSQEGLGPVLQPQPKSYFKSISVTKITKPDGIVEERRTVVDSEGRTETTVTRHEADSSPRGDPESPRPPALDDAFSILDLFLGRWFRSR
UniProt Q9UJ83: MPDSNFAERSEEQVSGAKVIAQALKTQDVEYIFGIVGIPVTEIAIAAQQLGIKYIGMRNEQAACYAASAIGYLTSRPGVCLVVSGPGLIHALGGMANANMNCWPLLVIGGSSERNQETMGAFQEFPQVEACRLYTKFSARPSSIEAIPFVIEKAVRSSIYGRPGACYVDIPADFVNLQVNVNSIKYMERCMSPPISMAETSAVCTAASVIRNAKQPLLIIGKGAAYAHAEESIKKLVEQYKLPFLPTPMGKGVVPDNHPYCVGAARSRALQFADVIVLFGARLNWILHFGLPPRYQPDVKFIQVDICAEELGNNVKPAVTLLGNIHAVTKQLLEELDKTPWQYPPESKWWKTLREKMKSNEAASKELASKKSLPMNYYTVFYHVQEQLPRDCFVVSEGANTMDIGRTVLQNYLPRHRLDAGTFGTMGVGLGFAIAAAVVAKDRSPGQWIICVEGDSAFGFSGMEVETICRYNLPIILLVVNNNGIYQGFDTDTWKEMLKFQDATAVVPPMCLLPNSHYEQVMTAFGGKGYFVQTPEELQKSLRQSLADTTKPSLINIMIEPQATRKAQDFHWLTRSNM
UniProt Q00403, whole entry, looked up: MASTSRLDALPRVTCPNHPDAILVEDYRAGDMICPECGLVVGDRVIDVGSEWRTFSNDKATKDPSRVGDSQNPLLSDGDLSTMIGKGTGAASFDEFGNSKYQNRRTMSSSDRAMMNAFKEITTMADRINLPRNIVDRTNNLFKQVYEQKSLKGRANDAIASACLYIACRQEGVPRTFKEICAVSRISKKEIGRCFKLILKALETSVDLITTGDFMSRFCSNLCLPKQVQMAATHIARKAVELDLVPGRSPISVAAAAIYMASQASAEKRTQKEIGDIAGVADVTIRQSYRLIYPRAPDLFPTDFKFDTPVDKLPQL
UniProt O94927: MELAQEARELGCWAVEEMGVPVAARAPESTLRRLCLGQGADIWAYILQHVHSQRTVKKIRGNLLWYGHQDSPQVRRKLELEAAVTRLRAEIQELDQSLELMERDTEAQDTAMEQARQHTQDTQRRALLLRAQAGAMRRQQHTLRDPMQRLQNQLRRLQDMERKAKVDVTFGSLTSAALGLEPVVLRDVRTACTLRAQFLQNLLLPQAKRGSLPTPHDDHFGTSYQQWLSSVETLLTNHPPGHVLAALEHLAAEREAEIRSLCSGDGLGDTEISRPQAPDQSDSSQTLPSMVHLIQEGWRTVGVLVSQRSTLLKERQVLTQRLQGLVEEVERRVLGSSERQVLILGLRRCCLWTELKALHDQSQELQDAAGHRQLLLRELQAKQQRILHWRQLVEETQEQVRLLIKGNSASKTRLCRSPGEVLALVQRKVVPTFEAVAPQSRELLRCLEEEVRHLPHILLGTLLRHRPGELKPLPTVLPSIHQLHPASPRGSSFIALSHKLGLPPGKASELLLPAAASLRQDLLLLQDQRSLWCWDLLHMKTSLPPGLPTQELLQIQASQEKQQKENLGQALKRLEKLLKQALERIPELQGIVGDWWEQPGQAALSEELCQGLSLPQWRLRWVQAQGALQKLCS
UniProt P02008: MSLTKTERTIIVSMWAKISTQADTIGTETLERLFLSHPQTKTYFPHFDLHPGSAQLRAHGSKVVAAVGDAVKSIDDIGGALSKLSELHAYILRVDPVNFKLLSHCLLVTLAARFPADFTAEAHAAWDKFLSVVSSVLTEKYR
UniProt P43250, whole entry, looked up: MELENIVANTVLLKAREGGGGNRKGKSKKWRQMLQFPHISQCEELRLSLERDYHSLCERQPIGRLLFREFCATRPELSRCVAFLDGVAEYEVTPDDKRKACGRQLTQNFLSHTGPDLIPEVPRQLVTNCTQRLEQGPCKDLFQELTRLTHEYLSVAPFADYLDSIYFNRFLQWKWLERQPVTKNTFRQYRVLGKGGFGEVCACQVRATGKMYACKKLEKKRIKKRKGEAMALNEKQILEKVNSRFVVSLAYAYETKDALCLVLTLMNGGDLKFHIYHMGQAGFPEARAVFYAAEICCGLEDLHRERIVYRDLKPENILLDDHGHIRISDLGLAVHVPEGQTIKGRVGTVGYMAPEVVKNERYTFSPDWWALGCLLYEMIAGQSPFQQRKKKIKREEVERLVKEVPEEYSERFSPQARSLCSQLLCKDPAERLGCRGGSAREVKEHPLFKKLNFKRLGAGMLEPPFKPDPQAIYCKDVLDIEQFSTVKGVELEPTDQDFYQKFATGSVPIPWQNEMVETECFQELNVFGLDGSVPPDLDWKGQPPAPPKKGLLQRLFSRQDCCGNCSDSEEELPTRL
UniProt Q9Y5Q8: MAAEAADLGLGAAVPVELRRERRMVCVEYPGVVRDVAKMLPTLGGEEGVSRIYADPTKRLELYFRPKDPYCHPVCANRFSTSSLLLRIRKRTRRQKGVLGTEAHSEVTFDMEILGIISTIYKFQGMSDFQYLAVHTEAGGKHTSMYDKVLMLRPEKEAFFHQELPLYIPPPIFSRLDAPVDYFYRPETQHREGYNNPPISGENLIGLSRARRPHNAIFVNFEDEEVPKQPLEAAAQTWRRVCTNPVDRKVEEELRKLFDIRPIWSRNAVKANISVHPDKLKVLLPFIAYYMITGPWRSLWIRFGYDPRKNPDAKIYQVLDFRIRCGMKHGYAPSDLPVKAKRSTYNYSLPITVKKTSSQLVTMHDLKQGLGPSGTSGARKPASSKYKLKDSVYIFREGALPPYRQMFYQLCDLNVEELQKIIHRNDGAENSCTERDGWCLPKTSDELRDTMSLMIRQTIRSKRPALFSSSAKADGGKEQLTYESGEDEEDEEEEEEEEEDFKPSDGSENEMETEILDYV
UniProt Q9Y4H4: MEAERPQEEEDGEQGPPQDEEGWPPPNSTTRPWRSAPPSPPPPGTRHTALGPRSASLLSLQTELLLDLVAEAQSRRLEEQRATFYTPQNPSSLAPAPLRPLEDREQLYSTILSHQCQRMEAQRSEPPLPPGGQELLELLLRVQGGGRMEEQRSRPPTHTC
UniProt Q6P1K8: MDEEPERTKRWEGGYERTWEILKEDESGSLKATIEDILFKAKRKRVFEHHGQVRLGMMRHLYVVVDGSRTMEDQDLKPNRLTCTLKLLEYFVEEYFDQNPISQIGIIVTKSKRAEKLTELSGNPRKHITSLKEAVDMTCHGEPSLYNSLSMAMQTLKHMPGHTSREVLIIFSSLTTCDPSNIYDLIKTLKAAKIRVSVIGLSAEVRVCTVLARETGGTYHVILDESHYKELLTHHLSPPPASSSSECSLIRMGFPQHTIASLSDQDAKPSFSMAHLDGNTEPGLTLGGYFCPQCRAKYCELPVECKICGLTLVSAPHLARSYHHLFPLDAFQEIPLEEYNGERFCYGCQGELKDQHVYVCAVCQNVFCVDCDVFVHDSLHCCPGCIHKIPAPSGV
UniProt P34947, whole entry, looked up: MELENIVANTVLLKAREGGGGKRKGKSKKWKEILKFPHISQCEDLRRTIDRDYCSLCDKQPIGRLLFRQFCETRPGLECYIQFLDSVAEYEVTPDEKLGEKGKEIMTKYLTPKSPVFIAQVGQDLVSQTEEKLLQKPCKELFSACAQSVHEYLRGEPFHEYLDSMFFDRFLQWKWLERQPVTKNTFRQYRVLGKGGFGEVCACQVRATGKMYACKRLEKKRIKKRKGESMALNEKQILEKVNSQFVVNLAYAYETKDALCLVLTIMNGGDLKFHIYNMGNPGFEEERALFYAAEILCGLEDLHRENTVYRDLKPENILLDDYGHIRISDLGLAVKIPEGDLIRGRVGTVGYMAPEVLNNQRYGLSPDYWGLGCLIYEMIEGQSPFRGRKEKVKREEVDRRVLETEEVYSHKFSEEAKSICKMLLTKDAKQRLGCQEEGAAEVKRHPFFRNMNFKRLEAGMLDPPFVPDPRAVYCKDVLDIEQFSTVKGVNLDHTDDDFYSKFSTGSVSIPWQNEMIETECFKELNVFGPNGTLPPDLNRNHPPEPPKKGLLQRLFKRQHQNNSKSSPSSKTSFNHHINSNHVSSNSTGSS
UniProt P42357: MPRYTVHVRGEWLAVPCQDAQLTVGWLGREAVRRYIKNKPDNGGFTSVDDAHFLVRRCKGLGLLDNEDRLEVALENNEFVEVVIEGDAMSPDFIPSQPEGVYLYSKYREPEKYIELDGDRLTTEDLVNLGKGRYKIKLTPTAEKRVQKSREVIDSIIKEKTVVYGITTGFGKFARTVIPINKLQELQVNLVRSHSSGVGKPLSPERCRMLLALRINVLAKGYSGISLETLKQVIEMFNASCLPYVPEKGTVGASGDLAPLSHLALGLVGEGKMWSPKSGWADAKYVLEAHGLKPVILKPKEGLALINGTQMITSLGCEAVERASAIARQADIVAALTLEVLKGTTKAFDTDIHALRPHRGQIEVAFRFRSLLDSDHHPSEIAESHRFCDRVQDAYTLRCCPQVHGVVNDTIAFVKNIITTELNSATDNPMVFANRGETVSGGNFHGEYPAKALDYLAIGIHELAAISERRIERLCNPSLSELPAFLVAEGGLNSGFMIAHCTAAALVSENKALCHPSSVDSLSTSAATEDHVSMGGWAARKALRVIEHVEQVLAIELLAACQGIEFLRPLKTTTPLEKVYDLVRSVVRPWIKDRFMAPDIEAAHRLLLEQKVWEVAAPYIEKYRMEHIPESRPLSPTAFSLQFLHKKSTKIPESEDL

What was measured:
Assay in all cases: log2 fold change, soluble protein after heating vs DMSO (PISA); higher = thermal stabilisation; K562 lysate, 10 uM; active = over 0.2 and 3.5 SD of the protein, either way, in both replicates (recomputed)
[1] = compound: CS(=O)(=O)CCNCc1ccc(-c2ccc3ncnc(Nc4ccc(OCc5cccc(F)c5)c(Cl)c4)c3c2)o1 [lapatinib]
Procedure, shortened: (§1)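 Quantification was by TMTpro 16plex LC-MS/MS with equalised channel sums, applied to the supernatant after 21,000xg for 90 min. Samples were crude K562 extract at 1 mg/mL protein in PBS pH 7.4 with 1 mM MgCl2, treated with 10 μM compound for 30 min, heated for 3 min across 48°C-58°C, pooled and brought to 0.5% NP-40 at 4°C. Values are log-two fold changes in thermal stability relative to solvent controls, from duplicates.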

[2] = compound: CS(=O)(=O)N1CCN(Cc2cc3nc(-c4cccc5[nH]ncc45)nc(N4CCOCC4)c3s2)CC1 [pictilisib]
Procedure, shortened: as §1

[3] = compound: C[C@@H](Oc1cc(-c2cnn(C3CCNCC3)c2)cnc1N)c1c(Cl)ccc(F)c1Cl [crizotinib]
Procedure, shortened: as §1

[4] = compound: C[C@H](C1=CC=C(C=C1)C(=O)NC2=C3C=CNC3=NC=C2)N
Procedure, shortened: as §1

[5] = compound: C[C@H](Nc1ncnc2nc[nH]c12)c1cc2cccc(Cl)c2c(=O)n1-c1ccccc1 [duvelisib]
Procedure, shortened: as §1

[6] = compound: Cc1cc(Nc2cc(CN3CCOCC3)c3nc(C)c(Cc4ccc(Cl)cc4F)n3n2)n[nH]1 [gandotinib]
Procedure, shortened: as §1

[7] = compound: Cc1cc(Nc2cc(N3CCN(C)CC3)nc(Sc3ccc(NC(=O)C4CC4)cc3)n2)n[nH]1 [tozasertib]
Procedure, shortened: as §1

[8] = compound: Cc1ccc(-n2nc(C(C)(C)C)cc2NC(=O)Nc2ccc(OCCN3CCOCC3)c3ccccc23)cc1 [doramapimod]
Procedure, shortened: as §1

[9] = compound: Cc1ccc(NC(=O)c2ccc(CN3CC[C@H](N(C)C)C3)c(C(F)(F)F)c2)cc1Nc1nccc(-c2cncnc2)n1 [bafetinib]
Procedure, shortened: as §1

[10] = compound: Cc1cccc(CC(=O)N2CCc3c2ccc(-c2cn(C)c4ncnc(N)c24)c3F)n1
Procedure, shortened: as §1

[11] = compound: Cc1cn(-c2cc(NC(=O)c3ccc(C)c(Nc4nccc(-c5cccnc5)n4)c3)cc(C(F)(F)F)c2)cn1 [nilotinib]
Procedure, shortened: as §1

[12] = compound: Cc1nc(Nc2n[nH]c3c2CN(C(=O)N[C@H](CN(C)C)c2ccccc2)C3(C)C)c2sccc2n1
Procedure, shortened: as §1

[13] = compound: Cc1nc(Nc2ncc(C(=O)Nc3c(C)cccc3Cl)s2)cc(N2CCN(CCO)CC2)n1 [dasatinib]
Procedure, shortened: as §1

[14] = compound: Cc1ncc(-c2ccnc(Nc3ccc(S(C)(=O)=O)cc3)n2)n1C(C)C
Procedure, shortened: as §1

[15] = compound: Cn1cc(-c2ccc3c(c2)CCN3C(=O)Cc2cccc(C(F)(F)F)c2)c2c(N)ncnc21
Procedure, shortened: as §1

[16] = compound: Cn1cc(CNCC2CCN(c3ncc(C(=O)NO)cn3)CC2)c2ccccc21 [quisinostat]
Procedure, shortened: as §1

[17] = compound: Cn1cncc1[C@@](N)(c1ccc(Cl)cc1)c1ccc2c(c1)c(-c1cccc(Cl)c1)cc(=O)n2C [tipifarnib]
Procedure, shortened: as §1

[18] = compound: NC(=O)Nc1cc(-c2cccc(F)c2)sc1C(=O)N[C@H]1CCCNC1
Procedure, shortened: as §1

[19] = compound: NC(=O)c1cnc(N[C@@H]2CCCC[C@@H]2N)nc1Nc1cccc(-n2nccn2)c1
Procedure, shortened: as §1

[20] = compound: NC1(c2ccc(-c3nc4ccn5c(=O)[nH]nc5c4cc3-c3ccccc3)cc2)CCC1
Procedure, shortened: as §1

Measured: log2 fold change

GSR (UniProt P00390)
inactive: [1] -0.029 | [2] -0.109 | [3] 0.006 | [4] -0.112 | [5] -0.01 | [6] 0.128 | [7] -0.023 | [8] -0.001 | [9] 0.093 | [10] 0.038 | [11] 0.06 | [12] 0.032 | [13] 0.029 | [14] 0.039 | [15] -0.028 | [16] -0.028 | [17] 0.001 | [18] 0.028 | [19] -0.042 | [20] -0.114

HAX1 (UniProt O00165)
inactive: [1] 0.021 | [2] 0.011 | [3] -0.027 | [4] -0.002 | [5] -0.071 | [6] -0.08 | [7] -0.004 | [8] 0.028 | [9] -0.009 | [10] 0.059 | [11] 0.003 | [12] -0.059 | [13] -0.104 | [14] -0.015 | [15] 0.081 | [16] -0.012 | [17] -0.097 | [18] 0.013 | [19] -0.004 | [20] -0.012

HACL1 (UniProt Q9UJ83)
inactive: [1] -0.05 | [2] 0.005 | [3] 0.01 | [4] 0.005 | [5] 0.023 | [6] 0.003 | [7] -0.019 | [8] -0.05 | [9] -0.013 | [10] -0.046 | [11] 0.073 | [12] 0.029 | [13] 0.023 | [14] 0.014 | [15] -0.004 | [16] -0.018 | [17] -0.008 | [18] 0.003 | [19] 0.006 | [20] 0.019

GTF2B (UniProt Q00403)
inactive: [1] -0.013 | [2] 0.004 | [3] -0.056 | [4] -0.014 | [5] 0.02 | [6] -0.064 | [7] 0.035 | [8] 0.028 | [9] -0.02 | [10] 0.01 | [11] -0.01 | [12] 0.021 | [13] -0.009 | [14] -0.047 | [15] 0.045 | [16] -0.041 | [17] 0.008 | [18] -0.014 | [19] -0.002 | [20] -0.031

HAUS5 (UniProt O94927)
inactive: [1] -0.036 | [2] -0.017 | [3] -0.071 | [4] 0.05 | [5] 0.044 | [6] -0.098 | [7] -0.002 | [8] 0.032 | [9] -0.042 | [10] -0.029 | [11] -0.014 | [12] 0.01 | [13] -0.071 | [14] -0.011 | [15] -0.015 | [16] -0.11 | [17] 0.006 | [18] 0.079 | [19] 0.004 | [20] -0.02

HBZ (UniProt P02008)
inactive: [1] 0.086 | [2] 0.06 | [3] 0.009 | [4] 0.1 | [5] 0.032 | [6] -0.048 | [7] 0.028 | [8] 0.021 | [9] -0.028 | [10] -0.074 | [11] 0.071 | [12] -0.019 | [13] 0.011 | [14] 0.062 | [15] 0.001 | [16] 0.017 | [17] 0.016 | [18] -0.042 | [19] -0.049 | [20] 0.005

GRK6 isoform 2 (UniProt P43250)
inactive: [1] -0.122 | [2] -0.088 | [3] 0.084 | [4] -0.066 | [5] -0.04 | [6] 0.058 | [7] -0.063 | [8] 0.046 | [9] 0.065 | [10] 0.028 | [11] -0.024 | [12] 0.094 | [13] 0.023 | [14] 0.005 | [15] -0.014 | [16] -0.043 | [17] 0 | [18] 0.012 | [19] 0.028 | [20] -0.097

Taken from above (two entries):
HAUS5 (UniProt O94927)
inactive: [1] -0.036 | [2] -0.017 | [3] -0.071 | [4] 0.05 | [5] 0.044 | [6] -0.098 | [7] -0.002 | [8] 0.032 | [9] -0.042 | [10] -0.029 | [11] -0.014 | [12] 0.01 | [13] -0.071 | [14] -0.011 | [15] -0.015 | [16] -0.11 | [17] 0.006 | [18] 0.079 | [19] 0.004 | [20] -0.02

HBZ (UniProt P02008)
inactive: [1] 0.086 | [2] 0.06 | [3] 0.009 | [4] 0.1 | [5] 0.032 | [6] -0.048 | [7] 0.028 | [8] 0.021 | [9] -0.028 | [10] -0.074 | [11] 0.071 | [12] -0.019 | [13] 0.011 | [14] 0.062 | [15] 0.001 | [16] 0.017 | [17] 0.016 | [18] -0.042 | [19] -0.049 | [20] 0.005

More results

HAGH (UniProt Q16775)
inactive: [1] -0.05 | [2] -0.024 | [3] -0.007 | [4] -0.057 | [5] -0.049 | [6] 0.046 | [7] 0.03 | [8] -0.039 | [9] -0.058 | [10] 0.043 | [11] 0.03 | [12] 0.01 | [13] -0.017 | [14] -0.004 | [15] -0.043 | [16] -0.054 | [17] -0.011 | [18] 0.045 | [19] 0.01 | [20] -0.032

GTF3C5 isoform 3 (UniProt Q9Y5Q8)
inactive: [1] -0.009 | [2] -0.01 | [3] -0.047 | [4] -0.014 | [5] -0.02 | [6] -0.002 | [7] -0.012 | [8] 0.063 | [9] -0.047 | [10] 0.02 | [11] 0.023 | [12] -0.023 | [13] -0.017 | [14] -0.018 | [15] 0.019 | [16] -0.063 | [17] -0.004 | [18] 0.05 | [19] -0.006 | [20] 0.005

HBZ, A0A494C057
inactive: [1] -0.137 | [2] -0.116 | [4] -0.024 | [6] -0.175 | [9] 0.018 | [10] 0.063 | [11] -0.059 | [12] 0.032 | [14] 0.122 | [17] 0.149 | [19] -0.131

GPSM3 (UniProt Q9Y4H4)
inactive: [1] 0.007 | [3] 0.08 | [4] -0.101 | [5] 0.056 | [6] 0.124 | [8] 0.052 | [10] -0.181 | [11] 0.142 | [12] 0.004 | [13] -0.261 | [14] -0.012 | [15] 0.003 | [16] -0.092 | [17] 0.174 | [18] -0.003 | [19] 0.166 | [20] -0.07

GSTO1 (UniProt Q5TA02)
inactive: [1] -0.191 | [11] -0.222 | [12] 0.039 | [14] 0.027 | [17] 0.17 | [19] -0.035

GTF2H2C (UniProt Q6P1K8)
inactive: [3] -0.063 | [5] 0.059 | [7] 0.004 | [8] -0.056 | [13] -0.099 | [15] 0.068 | [16] -0.098 | [18] 0.076

H3C1 (UniProt P68431)
inactive: [2] -0.019 | [9] -0.013

GRK5 (UniProt P34947)
inactive: [11] -0.137 | [12] -0.022 | [14] -0.085 | [17] 0.2 | [20] -0.021

HAL (UniProt P42357)
inactive: [1] 0.314 | [3] -0.017 | [4] 0.547 | [5] -0.357 | [6] -0.119 | [7] 0.237 | [8] -0.156 | [10] -0.269 | [13] 0.247 | [15] -0.171 | [16] 0.107 | [18] -0.243 | [19] 0.118 | [20] 0.195
